From patent US10150737B2, “Compounds for controlling arthropods” (priority 2013, dated 2018)
Some of these results come from one statement about several compounds together. Some ranges recur; such a range may be that of the whole group of compounds.

Columns and labels:
Format in all cases: in vivo
Settings in all cases: glazed tile, exposure 30 minutes, 24 hours after contact
[1] = tested on: Aedes aegypti strain MONHEIM; assay: Aedes test (AEDSAE surface treatment)
Method: (§1) Solvent: acetone+2000 ppm rapeseed oil methyl ester (RME)
(§2) To produce an appropriate active ingredient formulation, the active ingredient is dissolved in the solvent (2 mg/ml). The active ingredient formulation is pipetted onto a glazed tile and, after it has dried off, adult mosquitoes of the species Aedes aegypti strain MONHEIM are placed onto the treated tile. The exposure time is 30 minutes.
(§3) 24 hours after contact with the treated surface, mortality in % is determined. 100% means that all mosquitoes have been killed; 0% means that none of the mosquitoes have been killed.

[2] = tested on: Anopheles funestus strain FUMOZ-R; assay: Anopheles test (ANPHFU surface treatment)
Method: as §1
as §2, with “Anopheles funestus” for “Aedes aegypti”, “FUMOZ-R (Hunt et al., Med Vet Entomol. 2005 September; 19 (3):271-5)” for “MONHEIM”
as §3

[3] = tested on: Anopheles gamhiae strain RSPH (homozygot kdr); assay: Anopheles test (ANPHGB surface treatment)
Method: as §1
as §2, with “Anopheles gamhiae” for “Aedes aegypti”, “RSPH (homozygot kdr)” for “MONHEIM”
as §3

Measured: efficacy (mortality)

Cc1cc(C(F)(C(F)(F)F)C(F)(F)F)cc(C)c1-n1cc(-c2ccc(Cl)c(C(=O)NC3CC3)c2)cn1 [I-T3-1]
90-100%: [1]; application rate 20 mg/m2 | [1]; application rate 100 mg/m2

Cc1cc(C(F)(C(F)(F)F)C(F)(F)F)cc(C)c1-n1cc(-c2ccc(Cl)c(C(=O)NC3(C#N)CC3)c2)cn1 [I-T3-3]
90-100%: [2]; application rate 20 mg/m2 | [1]; application rate 20 mg/m2 | [1]; application rate 100 mg/m2

Cc1cc(C(F)(C(F)(F)F)C(F)(F)F)cc(C)c1-n1cc(-c2cncc(C(=O)NC3(C#N)CC3)c2)cn1 [I-T3-8]
90-100%: [1]; application rate 20 mg/m2 | [1]; application rate 100 mg/m2

Cc1cc(C(F)(C(F)(F)F)C(F)(F)F)cc(C)c1-n1cc(-c2cnc(Cl)c(C(=O)NC3CC3)c2)cn1 [I-T3-20]
90-100%: [1]; application rate 20 mg/m2 | [1]; application rate 100 mg/m2 | [3]; application rate 100 mg/m2

Cc1cc(C(F)(C(F)(F)F)C(F)(F)F)cc(C)c1-n1cc(-c2cnc(Cl)c(C(=O)NC3(C#N)CC3)c2)cn1 [I-T3-21]
90-100%: [1]; application rate 20 mg/m2 | [1]; application rate 100 mg/m2

CCc1cc(C(F)(C(F)(F)F)C(F)(F)F)ccc1-n1cc(-c2ccc(Cl)c(C(=O)NC3(C#N)CC3)c2)cn1 [I-T3-38]
90-100%: [2]; application rate 20 mg/m2 | [2]; application rate 100 mg/m2 | [1]; application rate 20 mg/m2 | [1]; application rate 100 mg/m2

O=C(NC1CC1)c1cc(-c2cnn(-c3c(Cl)cc(C(F)(C(F)(F)F)C(F)(F)F)cc3Cl)c2)cnc1Cl [I-T3-42]
90-100%: [2]; application rate 20 mg/m2 | [1]; application rate 20 mg/m2 | [1]; application rate 100 mg/m2

N#CC1(NC(=O)c2cc(-c3cnn(-c4c(Cl)cc(C(F)(C(F)(F)F)C(F)(F)F)cc4Cl)c3)cnc2Cl)CC1 [I-T3-43]
90-100%: [2]; application rate 20 mg/m2 | [2]; application rate 100 mg/m2 | [1]; application rate 20 mg/m2 | [1]; application rate 100 mg/m2 | [3]; application rate 20 mg/m2 | [3]; application rate 100 mg/m2

CCc1cc(C(F)(C(F)(F)F)C(F)(F)F)cc(C)c1-n1cc(-c2ccc(Cl)c(C(=O)NC3(C#N)CC3)c2)cn1 [I-T3-46]
90-100%: [2]; application rate 20 mg/m2 | [2]; application rate 100 mg/m2 | [1]; application rate 20 mg/m2 | [1]; application rate 100 mg/m2

O=C(NC1CC1)c1cc(-c2cnn(-c3ccc(C(F)(C(F)(F)F)C(F)(F)F)cc3C(F)(F)F)c2)ccc1Cl [I-T3-52]
90-100%: [2]; application rate 20 mg/m2 | [1]; application rate 20 mg/m2 | [1]; application rate 100 mg/m2 | [3]; application rate 20 mg/m2 | [3]; application rate 100 mg/m2

N#CC1(NC(=O)c2cc(-c3cnn(-c4ccc(C(F)(C(F)(F)F)C(F)(F)F)cc4C(F)(F)F)c3)ccc2Cl)CC1 [I-T3-53]
90-100%: [2]; application rate 20 mg/m2 | [1]; application rate 20 mg/m2 | [1]; application rate 100 mg/m2 | [3]; application rate 20 mg/m2 | [3]; application rate 100 mg/m2

Cc1cc(C(F)(C(F)(F)F)C(F)(F)F)cc(C(F)(F)F)c1-n1cc(-c2ccc(Cl)c(C(=O)NC3CC3)c2)cn1 [I-T3-54]
90-100%: [2]; application rate 20 mg/m2 | [2]; application rate 100 mg/m2 | [1]; application rate 20 mg/m2 | [1]; application rate 100 mg/m2 | [3]; application rate 20 mg/m2 | [3]; application rate 100 mg/m2

Cc1cc(C(F)(C(F)(F)F)C(F)(F)F)cc(C(F)(F)F)c1-n1cc(-c2ccc(Cl)c(C(=O)NC3(C#N)CC3)c2)cn1 [I-T3-55]
90-100%: [2]; application rate 20 mg/m2 | [1]; application rate 20 mg/m2 | [1]; application rate 100 mg/m2

O=C(NC1CC1)c1cc(-c2cnn(-c3c(Cl)cc(C(F)(C(F)(F)F)C(F)(F)F)cc3C(F)(F)F)c2)ccc1Cl [I-T3-56]
90-100%: [2]; application rate 100 mg/m2 | [1]; application rate 20 mg/m2 | [1]; application rate 100 mg/m2 | [3]; application rate 100 mg/m2

N#CC1(NC(=O)c2cc(-c3cnn(-c4c(Cl)cc(C(F)(C(F)(F)F)C(F)(F)F)cc4C(F)(F)F)c3)ccc2Cl)CC1 [I-T3-57]
90-100%: [2]; application rate 20 mg/m2 | [1]; application rate 20 mg/m2 | [1]; application rate 100 mg/m2 | [3]; application rate 20 mg/m2 | [3]; application rate 100 mg/m2

Cc1cc(C(F)(C(F)(F)F)C(F)(F)F)cc(Cl)c1-n1cc(-c2ccc(Cl)c(C(=O)NC3CC3)c2)cn1 [I-T3-63]
90-100%: [2]; application rate 20 mg/m2 | [2]; application rate 100 mg/m2 | [1]; application rate 20 mg/m2 | [1]; application rate 100 mg/m2

Cc1cc(C(F)(C(F)(F)F)C(F)(F)F)cc(Cl)c1-n1cc(-c2ccc(Cl)c(C(=O)NC3(C#N)CC3)c2)cn1 [I-T3-64]
90-100%: [1]; application rate 20 mg/m2 | [1]; application rate 100 mg/m2

Cc1cc(C(F)(C(F)(F)F)C(F)(F)F)cc(Br)c1-n1cc(-c2ccc(Cl)c(C(=O)NC3CC3)c2)cn1 [I-T3-86]
90-100%: [2]; application rate 100 mg/m2 | [1]; application rate 20 mg/m2 | [1]; application rate 100 mg/m2

N#CC1(NC(=O)c2cc(-c3cnn(-c4c(Cl)cc(OC(F)(F)F)cc4Cl)c3)ccc2Cl)CC1 [I-T3-87]
90-100%: [1]; application rate 20 mg/m2 | [1]; application rate 100 mg/m2 | [3]; application rate 20 mg/m2

Cc1ncc(-c2cnn(-c3c(Cl)cc(C(F)(C(F)(F)F)C(F)(F)F)cc3Cl)c2)cc1C(=O)NC1CC1 [I-T3-91]
90-100%: [1]; application rate 20 mg/m2 | [1]; application rate 100 mg/m2 | [3]; application rate 20 mg/m2

N#CC1(NC(=O)c2cc(-c3cnn(-c4c(Cl)cc(C(F)(F)F)cc4Cl)c3)cnc2Cl)CC1 [I-T3-95]
90-100%: [1]; application rate 20 mg/m2

Cc1cc(C(F)(C(F)(F)F)C(F)(F)F)cc(C)c1-n1cc(-c2cnc(C)c(C(=O)NC3CC3)c2)cn1 [I-T3-96]
90-100%: [1]; application rate 20 mg/m2 | [1]; application rate 100 mg/m2

O=C(NC1CC1)c1cc(-c2cnn(-c3c(Cl)cc(C(F)(F)F)cc3Cl)c2)cnc1Cl [I-T3-98]
90-100%: [1]; application rate 20 mg/m2 | [1]; application rate 100 mg/m2

CN(C(=O)c1cc(-c2cnn(-c3c(Cl)cc(C(F)(F)F)cc3Cl)c2)cnc1Cl)C1CC1 [I-T3-99]
90-100%: [2]; application rate 20 mg/m2 | [2]; application rate 100 mg/m2 | [1]; application rate 20 mg/m2 | [1]; application rate 100 mg/m2

Cc1cc(C(F)(C(F)(F)F)C(F)(F)F)cc(C)c1-n1cc(-c2cnc(Cl)c(C(=O)N(C)C3CC3)c2)cn1 [I-T3-101]
90-100%: [1]; application rate 20 mg/m2 | [1]; application rate 100 mg/m2

Cc1cc(C(F)(C(F)(F)F)C(F)(F)F)cc(C)c1-n1cc(-c2cnc(Cl)c(C(=O)N(C)C3(C#N)CC3)c2)cn1 [I-T3-103]
90-100%: [1]; application rate 20 mg/m2 | [1]; application rate 100 mg/m2

Cc1cc(C(F)(C(F)(F)F)C(F)(F)F)cc(C(F)(F)F)c1-n1cc(-c2cnc(Cl)c(C(=O)NC3CC3)c2)cn1 [I-T3-106]
90-100%: [1]; application rate 20 mg/m2 | [1]; application rate 100 mg/m2 | [3]; application rate 20 mg/m2

Cc1cc(C(F)(C(F)(F)F)C(F)(F)F)cc(C(F)(F)F)c1-n1cc(-c2cnc(Cl)c(C(=O)N(C)C3CC3)c2)cn1 [I-T3-107]
90-100%: [2]; application rate 20 mg/m2 | [2]; application rate 100 mg/m2 | [1]; application rate 20 mg/m2 | [1]; application rate 100 mg/m2

Cc1cc(C(F)(C(F)(F)F)C(F)(F)F)cc(C(F)(F)F)c1-n1cc(-c2cnc(Cl)c(C(=O)NC3(C#N)CC3)c2)cn1 [I-T3-108]
90-100%: [1]; application rate 20 mg/m2 | [1]; application rate 100 mg/m2

CN(C(=O)c1cc(-c2cnn(-c3c(Cl)cc(C(F)(C(F)(F)F)C(F)(F)F)cc3C(F)(F)F)c2)cnc1Cl)C1CC1 [I-T3-113]
90-100%: [2]; application rate 20 mg/m2 | [2]; application rate 100 mg/m2 | [1]; application rate 20 mg/m2 | [1]; application rate 100 mg/m2

Cc1cc(C(F)(C(F)(F)F)C(F)(F)F)cc(C)c1-n1cc(-c2cnc(C)c(C(=O)N(C)C3(C#N)CC3)c2)cn1 [I-T3-115]
90-100%: [2]; application rate 100 mg/m2 | [1]; application rate 20 mg/m2 | [1]; application rate 100 mg/m2

Cc1cc(C(F)(C(F)(F)F)C(F)(F)F)cc(C(F)(F)F)c1-n1cc(-c2cnc(C)c(C(=O)NC3CC3)c2)cn1 [I-T3-117]
90-100%: [1]; application rate 20 mg/m2 | [1]; application rate 100 mg/m2

Cc1cc(C(F)(C(F)(F)F)C(F)(F)F)cc(C(F)(F)F)c1-n1cc(-c2cnc(C)c(C(=O)N(C)C3CC3)c2)cn1 [I-T3-118]
90-100%: [1]; application rate 20 mg/m2 | [1]; application rate 100 mg/m2

Cc1cc(C(F)(C(F)(F)F)C(F)(F)F)cc(C)c1-n1cc(-c2cnc(C)c(C(=O)N(C)C3CC3)c2)cn1 [I-T3-120]
90-100%: [1]; application rate 100 mg/m2

Cc1ncc(-c2cnn(-c3c(Cl)cc(C(F)(C(F)(F)F)C(F)(F)F)cc3C(F)(F)F)c2)cc1C(=O)N(C)C1CC1 [I-T3-130]
90-100%: [1]; application rate 20 mg/m2 | [1]; application rate 100 mg/m2 | [3]; application rate 20 mg/m2 | [3]; application rate 100 mg/m2

O=C(NC1CC1)c1cc(-c2cnn(-c3c(Cl)cc(C(F)(C(F)(F)F)C(F)(F)F)cc3Cl)c2)cnc1NC1CC1 [I-T3-137]
90-100%: [3]; application rate 20 mg/m2

N#CC1(NC(=O)c2cc(-c3cnn(-c4c(Cl)cc(C(F)(C(F)(F)F)C(F)(F)F)cc4OC(F)(F)F)c3)ccc2Cl)CC1 [I-T3-163]
90-100%: [1]; application rate 20 mg/m2 | [1]; application rate 100 mg/m2

N#CC1(NC(=O)c2cc(-c3cc(-c4c(Cl)cc(C(F)(C(F)(F)F)C(F)(F)F)cc4Cl)on3)ccc2Cl)CC1 [I-T23-2]
90-100%: [2]; application rate 20 mg/m2 | [1]; application rate 20 mg/m2 | [1]; application rate 100 mg/m2
